Laboratory results from patent US20120171240A1 (UNIVERSITY OF LOUISVILLE RESEARCH FOUNDATION, published 2012).
Results are given in words; binding and its absence hold for the method and conditions named. Some entries that bind do so weakly or less than the wild type.

Amino acid sequences for entries named in this document (tags omitted). A change or cut given only in a name is not applied to a line headed by its entry. Residues count along the entry.
UniProt P27512, residues 20-289: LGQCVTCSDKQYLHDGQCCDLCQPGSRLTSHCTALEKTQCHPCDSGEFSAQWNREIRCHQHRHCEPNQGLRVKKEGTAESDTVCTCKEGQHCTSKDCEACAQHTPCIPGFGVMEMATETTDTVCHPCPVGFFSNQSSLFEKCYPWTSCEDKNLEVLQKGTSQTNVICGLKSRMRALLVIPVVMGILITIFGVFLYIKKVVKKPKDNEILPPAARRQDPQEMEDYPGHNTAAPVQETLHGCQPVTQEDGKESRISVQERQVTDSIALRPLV
UniProt P25942, residues 21-277: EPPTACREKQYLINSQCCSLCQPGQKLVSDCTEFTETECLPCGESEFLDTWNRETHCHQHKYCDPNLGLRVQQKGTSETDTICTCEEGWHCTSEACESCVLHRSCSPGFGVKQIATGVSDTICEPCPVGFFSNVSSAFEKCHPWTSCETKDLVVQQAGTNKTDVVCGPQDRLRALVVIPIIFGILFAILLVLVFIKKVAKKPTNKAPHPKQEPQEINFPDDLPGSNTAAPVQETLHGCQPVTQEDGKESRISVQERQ
UniProt P22629: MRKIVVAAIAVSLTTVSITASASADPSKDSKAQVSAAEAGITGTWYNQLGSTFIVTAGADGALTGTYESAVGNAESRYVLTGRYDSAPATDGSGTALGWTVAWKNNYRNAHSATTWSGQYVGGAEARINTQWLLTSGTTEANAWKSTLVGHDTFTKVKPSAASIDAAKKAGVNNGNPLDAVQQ

Columns and labels:
[1] = target: murine CD40 receptor (mouse) (UniProt P27512); assay: flow cytometry on mouse A20 cells, 200 ng/ml, FITC anti-streptavidin detection
human CD40 receptor [2] = target: T1, human CD40 receptor (human, UniProt P25942 21-277); assay: flow cytometry on human THP-1 cells, FITC anti-streptavidin detection
[3] = target: murine CD40 receptor (mouse) (UniProt P27512); assay: flow cytometry on mouse A20 cells, FITC anti-streptavidin detection
human CD40 receptor [4] = target: T1, human CD40 receptor; assay: flow cytometry on human THP-1 cells, 200 ng/ml, FITC anti-streptavidin detection

Measured: binding

CSA-mCD40L (fusion of core streptavidin and murine CD40L) (from UniProt P22629 37-163; P27548 47-260) (ligand)
binds: all assays above
